Values quoted from earlier work in patent US6844365B2, “Substances for use in treating psoriasis” (Laboratoire Medidom S.A., priority 2000, dated 2005).
For at least one compound, name, drawing or mass did not settle the structure.

Assays:
IL-6, TNF-α and LIF = conditions: prior knowledge; cited from earlier work
[1] = system: cytokines of the IL-1 family, especially IL-1β; conditions: prior knowledge; cited from earlier work

O=C(O)c1cc(O)c2c(c1)C(=O)c1cccc(O)c1C2=O [rhein]
effect on IL-6 and other cytokines such as TNF-α and LIF (IL-6, TNF-α and LIF): inhibit IL-6 and other cytokines such as TNF-α and LIF | effect on synthesis and activity of pro-inflammatory catabolic cytokines of the IL-1 family, especially IL-1β [1]: inhibit the synthesis and activity
